# Results as given in the supplement of paper PMC4962491.
# ± gives the standard deviation of the averaged measurements. This is a selection; strong and weak results do not stand in their true shares. This data set is noisy: repeats of one test often differ as much as different tests do.
# Tested on: FaDu
# Assay: mitochondrial oxygen consumption rate normalised to cell number, Z score over the library; higher = higher oxygen consumption (negative = OCR reduction)
# Conditions: treatment time 24 h, assay medium: 5 mM galactose, 5 mM pyruvate, 4 mM glutamine
# Description: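 Primary screen: FaDu cells were incubated 24 h with Pharmakon 1600 / TDI oncology set compounds at 2 or 10 uM. Mitochondrial-specific OCR (basal minus 2 uM antimycin A) was measured on a Seahorse XF96 in assay medium with 5 mM galactose, 5 mM pyruvate and 4 mM glutamine, then corrected for Hoechst cell number and expressed as a Z score […]. Compounds that cut cell number by >66% were excluded. Two repeats.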
structure (smiles),measurement,setting,value
Cc1c(N(C)CS(=O)(=O)O)c(=O)n(-c2ccccc2)n1C,mitochondrial oxygen consumption rate normalised,2 µM,1.11 ± 1.4
O=S(=O)([O-])NC1CCCCC1.[Na+],mitochondrial oxygen consumption rate normalised,2 µM,-3.27 ± 0.22
CCN(CC)CCc1nc(-c2ccccc2)no1,mitochondrial oxygen consumption rate normalised,2 µM,-0.224 ± 0.42
CCc1cn([C@H]2C[C@H](O)[C@@H](CO)O2)c(=O)[nH]c1=O,mitochondrial oxygen consumption rate normalised,2 µM,1.3 ± 0.53
CC(C)NC[C@@H](O)COc1cccc2ccccc12,mitochondrial oxygen consumption rate normalised,2 µM,0.514 ± 0.96
O=S(=O)(O)NC1CCCCC1,mitochondrial oxygen consumption rate normalised,2 µM,0.957 ± 1.4
O=c1oc2ccccc2c(O)c1Cc1c(O)c2ccccc2oc1=O,mitochondrial oxygen consumption rate normalised,2 µM,-0.00856 ± 1.6
CN1CCN(CCCN2c3ccccc3Sc3ccc(Cl)cc32)CC1,mitochondrial oxygen consumption rate normalised,2 µM,1.2 ± 0.69
NCC(O)CC(=O)O (centres undefined),mitochondrial oxygen consumption rate normalised,2 µM,-0.0811 ± 0.86
NNc1nncc2ccccc12,mitochondrial oxygen consumption rate normalised,2 µM,-0.191 ± 0.69
CC(=O)OCC(CCn1cnc2cnc(N)nc21)COC(C)=O,mitochondrial oxygen consumption rate normalised,2 µM,0.244 ± 0.75
C[C@H](CCC(=O)O)[C@H]1CC[C@H]2[C@@H]3[C@H](O)C[C@@H]4C[C@H](O)CC[C@]4(C)[C@H]3CC[C@]12C,mitochondrial oxygen consumption rate normalised,2 µM,0.0511 ± 0.2
C1CNCCN1,mitochondrial oxygen consumption rate normalised,2 µM,1.34 ± 0.45
COc1c2occc2c(OC)c2c(=O)cc(C)oc12,mitochondrial oxygen consumption rate normalised,2 µM,-0.212 ± 1.1
CC(C)[C@H](N)C(=O)OCC(CO)OCn1cnc2c(=O)nc(N)[nH]c21 (some centres undefined),mitochondrial oxygen consumption rate normalised,2 µM,-0.121 ± 0.18
same,mitochondrial oxygen consumption rate normalised,10 µM,1.37 ± 0.77
NC(=O)c1ccc([N+](=O)[O-])cc1Cl,mitochondrial oxygen consumption rate normalised,2 µM,-0.18 ± 0.84
O=C1OCCN1/N=C/c1ccc([N+](=O)[O-])o1,mitochondrial oxygen consumption rate normalised,2 µM,-0.505 ± 0.48
CCC(=O)O[C@]1(C(=O)CCl)[C@@H](C)C[C@H]2[C@@H]3CCC4=CC(=O)C=C[C@]4(C)[C@@]3(F)[C@@H](O)C[C@@]21C,mitochondrial oxygen consumption rate normalised,2 µM,0.48 ± 1.3
c1ccc([C@H]2CN3CCSC3=N2)cc1,mitochondrial oxygen consumption rate normalised,2 µM,0.973 ± 0.6
Cc1c(O)c(=O)ccn1C,mitochondrial oxygen consumption rate normalised,2 µM,-0.293 ± 0.87
COc1cc([C@@H]2c3cc4c(cc3[C@@H](O[C@@H]3O[C@@H]5CO[C@@H](C)O[C@H]5[C@H](O)[C@H]3O)[C@H]3COC(=O)[C@H]23)OCO4)cc(OC)c1O [Etoposide],mitochondrial oxygen consumption rate normalised,2 µM,1.04 ± 0.18
COc1cc([C@@H]2c3cc4c(cc3[C@@H](O[C@@H]3O[C@@H]5CO[C@@H](C)O[C@H]5[C@H](O)[C@H]3O)[C@H]3COC(=O)[C@H]23)OCO4)cc(OC)c1O,mitochondrial oxygen consumption rate normalised,2 µM,-0.58 ± 0.35
COc1ccccc1OCC(O)CN1CCN(CC(=O)Nc2c(C)cccc2C)CC1 (centres undefined),mitochondrial oxygen consumption rate normalised,2 µM,-0.199 ± 1.1
CCCNCC(O)COc1ccccc1C(=O)CCc1ccccc1 (centres undefined),mitochondrial oxygen consumption rate normalised,2 µM,-0.722 ± 0.35
NC(=O)C(c1ccccc1)(c1ccccc1)[C@@H]1CCN(CCc2ccc3c(c2)CCO3)C1,mitochondrial oxygen consumption rate normalised,2 µM,-0.0494 ± 0.29
C[C@H]1C[C@@H]2[C@H]([C@@H](O)C[C@@]3(C)[C@H]2CC[C@]3(O)C(=O)CO)[C@@]2(C)C=CC(=O)C=C12,mitochondrial oxygen consumption rate normalised,2 µM,-0.254 ± 0.34
O=C(O)c1cc(-c2ccccc2)nc2ccccc12,mitochondrial oxygen consumption rate normalised,2 µM,-0.284 ± 0.97
same,mitochondrial oxygen consumption rate normalised,10 µM,0.349 ± 0.05
CC(=O)O[C@]1(C(C)=O)CC[C@H]2[C@@H]3C[C@H](C)C4=CC(=O)CC[C@]4(C)[C@H]3CC[C@@]21C,mitochondrial oxygen consumption rate normalised,2 µM,-1.01 ± 0.12
CC(C)NCC(O)c1ccc2ccccc2c1 (centres undefined),mitochondrial oxygen consumption rate normalised,2 µM,0.0225 ± 0.0052
CN(C)c1nc(N(C)C)nc(N(C)C)n1 [Altretamine],mitochondrial oxygen consumption rate normalised,2 µM,0.603 ± 0.096
CN(C)c1nc(N(C)C)nc(N(C)C)n1,mitochondrial oxygen consumption rate normalised,2 µM,0.84 ± 0.26
CCN[C@H]1CN(CCCOC)S(=O)(=O)c2sc(S(N)(=O)=O)cc21,mitochondrial oxygen consumption rate normalised,2 µM,-0.221 ± 0.41
CC(=O)OCC(=O)[C@@]1(O)CC[C@H]2[C@@H]3CCC4=CC(=O)CC[C@]4(C)[C@H]3[C@@H](O)C[C@@]21C,mitochondrial oxygen consumption rate normalised,2 µM,-0.429 ± 1.2
CC(C)c1c(C(=O)Nc2ccccc2)c(-c2ccccc2)c(-c2ccc(F)cc2)n1CC[C@@H](O)C[C@@H](O)CC(=O)O,mitochondrial oxygen consumption rate normalised,2 µM,-0.714 ± 0.29
Cc1ncc(C[n+]2csc(CCO)c2C)c(N)n1,mitochondrial oxygen consumption rate normalised,2 µM,-0.142 ± 0.0069
same,mitochondrial oxygen consumption rate normalised,10 µM,1.53 ± 0.67
CCCCCCCCCCCCCCCC(=O)OC/C=C(C)/C=C/C=C(C)/C=C/C1=C(C)CCCC1(C)C,mitochondrial oxygen consumption rate normalised,2 µM,1.13 ± 1.9
C=CC(N)CCC(=O)O (centres undefined),mitochondrial oxygen consumption rate normalised,2 µM,-0.583 ± 0.42
NS(=O)(=O)c1cc(C2(O)NC(=O)c3ccccc32)ccc1Cl (centres undefined),mitochondrial oxygen consumption rate normalised,2 µM,0.0587 ± 0.64
CC(=O)OCC(=O)[C@@]1(O)CC[C@H]2[C@@H]3CCC4=CC(=O)CC[C@]4(C)[C@@]3(F)[C@@H](O)C[C@@]21C,mitochondrial oxygen consumption rate normalised,2 µM,-0.823 ± 0.11
O=C(O)CCCCCCCC(=O)O,mitochondrial oxygen consumption rate normalised,2 µM,-0.378 ± 0.25
Cc1ccc(C(=O)c2ccc(CC(=O)O)n2C)cc1,mitochondrial oxygen consumption rate normalised,2 µM,-0.0224 ± 0.56
CCCCN(CCCC)CCCOC(=O)c1ccc(N)cc1,mitochondrial oxygen consumption rate normalised,2 µM,0.561 ± 1.2
FC(F)(F)C(Cl)Br (centres undefined),mitochondrial oxygen consumption rate normalised,2 µM,0.397 ± 0.24
O=C(O)CN1C(=O)c2cccc3cccc(c23)C1=O,mitochondrial oxygen consumption rate normalised,2 µM,-0.572 ± 0.49
CC(=O)OCC(=O)[C@@]1(O)CC[C@H]2[C@@H]3CCC4=CC(=O)C=C[C@]4(C)[C@@]3(Cl)[C@@H](Cl)C[C@@]21C,mitochondrial oxygen consumption rate normalised,2 µM,-0.257 ± 0.54
C[C@@H](O)CN(CCN(C[C@@H](C)O)C[C@@H](C)O)C[C@@H](C)O,mitochondrial oxygen consumption rate normalised,2 µM,0.503 ± 0.66
CC[N+](C)(C)c1cccc(O)c1,mitochondrial oxygen consumption rate normalised,2 µM,0.808 ± 0.24
CC(=O)[C@@]1(O)CC[C@H]2[C@@H]3C=C(Cl)C4=CC(=O)[C@@H]5C[C@@H]5[C@]4(C)[C@H]3CC[C@@]21C,mitochondrial oxygen consumption rate normalised,2 µM,0.24 ± 0.47
same,mitochondrial oxygen consumption rate normalised,10 µM,-0.129 ± 1.6
O.O.O=C([O-])CN(CCN(CC(=O)[O-])CC(=O)O)CC(=O)O.[Na+].[Na+],mitochondrial oxygen consumption rate normalised,2 µM,0.428 ± 0.18
Nc1[nH]cnc2ncnc1-2,mitochondrial oxygen consumption rate normalised,2 µM,0.219 ± 0.19
OC(Cn1cncn1)(Cn1cncn1)c1ccc(F)cc1F,mitochondrial oxygen consumption rate normalised,2 µM,-0.421 ± 0.3
CCCOc1cc(N)ccc1C(=O)OCCN(CC)CC,mitochondrial oxygen consumption rate normalised,2 µM,-0.479 ± 0.087
NCCc1c[nH]cn1,mitochondrial oxygen consumption rate normalised,2 µM,-0.346 ± 1.1
N=C(N)NC(=N)NCCc1ccccc1,mitochondrial oxygen consumption rate normalised,2 µM,0.092 ± 0.93
CN1CCC(=C2c3ccccc3C=Cc3ccccc32)CC1,mitochondrial oxygen consumption rate normalised,2 µM,0.573 ± 0.25
CN1CCN(CC/C=C2/c3ccccc3Sc3ccc(S(=O)(=O)N(C)C)cc32)CC1,mitochondrial oxygen consumption rate normalised,2 µM,0.401 ± 0.032
CC(C)(CO)[C@@H](O)C(=O)NCCC(=O)NCCSSCCNC(=O)CCNC(=O)[C@H](O)C(C)(C)CO,mitochondrial oxygen consumption rate normalised,2 µM,-1.04 ± 0.035
C[C@H]1O[C@H](O[C@H]2[C@H](O)[C@@H](O)[C@@H](O[C@H]3[C@H](O)[C@@H](O)C(O)O[C@@H]3CO)O[C@@H]2CO)[C@H](O)[C@@H](O)[C@@H]1N[C@H]1C=C(CO)[C@@H](O)[C@H](O)[C@H]1O (some centres undefined),mitochondrial oxygen consumption rate normalised,2 µM,0.404 ± 0.73
Cc1nccnc1N1CCCCC1,mitochondrial oxygen consumption rate normalised,2 µM,-0.204 ± 0.42
NNCCc1ccccc1,mitochondrial oxygen consumption rate normalised,2 µM,-0.257 ± 0.98
C=C1CC[C@H](O)C/C1=C/C=C1\CCC[C@]2(C)[C@@H]([C@H](C)CCCC(C)C)CC[C@@H]12,mitochondrial oxygen consumption rate normalised,2 µM,-0.0398 ± 0.19
CC(Cc1cccc(C(F)(F)F)c1)NCCOC(=O)c1ccccc1 (centres undefined),mitochondrial oxygen consumption rate normalised,2 µM,0.0628 ± 0.28
CCCc1cc(C(N)=S)ccn1,mitochondrial oxygen consumption rate normalised,2 µM,0.273 ± 0.17
CC(=O)S[C@@H]1CC2=CC(=O)CC[C@]2(C)[C@H]2CC[C@@]3(C)[C@@H](CC[C@@]34CCC(=O)O4)[C@H]12,mitochondrial oxygen consumption rate normalised,2 µM,-1.11 ± 0.088
Oc1ccc2ccccc2c1 [beta-NAPHTHOL],mitochondrial oxygen consumption rate normalised,2 µM,-0.745 ± 0.92

# 4 entries picked at random from those above:
structure (smiles),measurement,setting,value
CC(C)NC[C@@H](O)COc1cccc2ccccc12,mitochondrial oxygen consumption rate normalised,2 µM,0.514 ± 0.96
CN1CCN(CCCN2c3ccccc3Sc3ccc(Cl)cc32)CC1,mitochondrial oxygen consumption rate normalised,2 µM,1.2 ± 0.69
NC(=O)c1ccc([N+](=O)[O-])cc1Cl,mitochondrial oxygen consumption rate normalised,2 µM,-0.18 ± 0.84
CC(Cc1cccc(C(F)(F)F)c1)NCCOC(=O)c1ccccc1 (centres undefined),mitochondrial oxygen consumption rate normalised,2 µM,0.0628 ± 0.28

# Given with tabs: part of the list above
structure (smiles)	measurement	setting	value
O=C(O)c1cc(-c2ccccc2)nc2ccccc12	mitochondrial oxygen consumption rate normalised	2 µM	-0.284 ± 0.97
same	mitochondrial oxygen consumption rate normalised	10 µM	0.349 ± 0.05
